Experimental data: paper PMC10781680
No constants are given. Whether binding was seen depends on the method and setting. In cells and extracts the contact can be indirect. Some entries that bind do so weakly or less than the wild type. For part of these data: Where a sequence is shown, tags or fusion partners need not be part of it.

Sequences of proteins named here, by UniProt entry; tags and fusion partners are left off.
UniProt Q8IYM9: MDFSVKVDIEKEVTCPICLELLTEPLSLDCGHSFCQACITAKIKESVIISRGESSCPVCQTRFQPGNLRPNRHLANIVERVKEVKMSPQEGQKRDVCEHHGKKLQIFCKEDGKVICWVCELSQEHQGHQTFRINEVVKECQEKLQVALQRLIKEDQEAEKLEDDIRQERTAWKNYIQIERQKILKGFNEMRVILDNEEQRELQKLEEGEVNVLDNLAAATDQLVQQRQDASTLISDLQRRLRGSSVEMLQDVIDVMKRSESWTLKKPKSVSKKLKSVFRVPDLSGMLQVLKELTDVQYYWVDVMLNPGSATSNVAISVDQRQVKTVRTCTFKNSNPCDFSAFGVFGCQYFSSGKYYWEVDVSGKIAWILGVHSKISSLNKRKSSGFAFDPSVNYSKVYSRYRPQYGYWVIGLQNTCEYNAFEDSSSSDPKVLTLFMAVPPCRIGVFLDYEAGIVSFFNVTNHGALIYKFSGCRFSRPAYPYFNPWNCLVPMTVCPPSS

Legend:
[1] = biological target: T1, PHLPP2 (endogenous) (human (endogenous in HepG2)) (UniProt Q6ZVD8); assay: co-IP; HepG2 cells transfected with Myc-tagged TRIM22 Wt or Muts (ΔRING, ΔBBox, ΔCC, ΔSPRY); IP (antibody not told) and Western blot
T1 sequence: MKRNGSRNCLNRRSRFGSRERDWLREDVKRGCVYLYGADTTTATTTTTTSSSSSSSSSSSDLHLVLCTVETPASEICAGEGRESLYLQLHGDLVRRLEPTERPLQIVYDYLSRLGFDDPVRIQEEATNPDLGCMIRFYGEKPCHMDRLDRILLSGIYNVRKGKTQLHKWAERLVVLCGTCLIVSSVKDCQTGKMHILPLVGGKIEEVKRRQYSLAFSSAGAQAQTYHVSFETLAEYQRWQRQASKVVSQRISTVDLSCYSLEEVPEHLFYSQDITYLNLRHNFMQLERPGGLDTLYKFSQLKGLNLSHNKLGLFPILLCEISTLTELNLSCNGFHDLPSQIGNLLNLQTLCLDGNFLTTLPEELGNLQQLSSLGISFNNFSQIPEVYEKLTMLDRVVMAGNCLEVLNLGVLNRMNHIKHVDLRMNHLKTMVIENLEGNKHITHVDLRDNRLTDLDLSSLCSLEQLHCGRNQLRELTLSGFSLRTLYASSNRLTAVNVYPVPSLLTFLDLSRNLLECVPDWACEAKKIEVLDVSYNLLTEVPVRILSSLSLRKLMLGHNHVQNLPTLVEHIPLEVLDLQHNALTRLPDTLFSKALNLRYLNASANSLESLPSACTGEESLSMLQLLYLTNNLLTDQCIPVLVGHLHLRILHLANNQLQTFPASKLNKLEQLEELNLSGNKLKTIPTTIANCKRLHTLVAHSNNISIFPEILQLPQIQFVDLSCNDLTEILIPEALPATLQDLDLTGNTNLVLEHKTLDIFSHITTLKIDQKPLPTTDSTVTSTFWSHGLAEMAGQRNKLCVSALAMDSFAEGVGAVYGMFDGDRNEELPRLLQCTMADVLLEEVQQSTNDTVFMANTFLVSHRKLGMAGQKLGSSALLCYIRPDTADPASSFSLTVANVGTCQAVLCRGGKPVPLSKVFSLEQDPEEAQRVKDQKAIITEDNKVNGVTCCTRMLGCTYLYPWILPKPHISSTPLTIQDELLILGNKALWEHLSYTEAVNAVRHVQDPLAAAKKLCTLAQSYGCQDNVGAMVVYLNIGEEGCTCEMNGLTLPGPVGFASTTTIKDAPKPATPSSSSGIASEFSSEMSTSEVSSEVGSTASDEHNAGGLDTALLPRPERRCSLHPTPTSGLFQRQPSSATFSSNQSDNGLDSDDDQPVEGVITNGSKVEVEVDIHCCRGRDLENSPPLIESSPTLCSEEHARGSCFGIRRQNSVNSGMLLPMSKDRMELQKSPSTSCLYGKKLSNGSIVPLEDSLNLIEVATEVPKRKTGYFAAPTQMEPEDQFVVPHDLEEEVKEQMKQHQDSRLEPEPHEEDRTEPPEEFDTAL

[2] = biological target: T1, PHLPP2 (endogenous) (human (endogenous in HepG2)); assay: condition: only after treatment with Lambda protein phosphatase (λ-PPase); co-IP; IP with anti-PHLPP2 in TRIM22-overexpressed HepG2 cells; after IP treated with λ-PPase; Western blot
[3] = biological target: T1, PHLPP2 (endogenous) (human (endogenous in HepG2)); assay: co-IP; HepG2 cells transfected with EV or TRIM22-Myc, 20 μM MG132 for 4 hrs; lysed in NET-2 buffer; IP with anti-Myc or anti-PHLPP2, Western blot; also done in IKKα- or IKKβ-depleted cells (siRNA): interaction reduced in IKKβ-depleted cells, not in IKKα-depleted cells
[4] = biological target: T1, PHLPP2 (endogenous) (human (endogenous in HepG2)); assay: proximity ligation; HepG2 cells on coverslips, transfected with TRIM22-Myc or treated with IR, 20 μM MG132 for 4 hrs, fixed and permeabilized; Duolink PLA kit with an antibody to each protein
[5] = biological target: T2, Flag-tagged PHLPP2 Wt (p3xFlag-PHLPP2 Wt) (UniProt Q6ZVD8); assay: co-IP; Flag-tagged PHLPP2 Wt or ΔCTD co-transfected with TRIM22 Wt into HepG2 cells; IP with Flag antibody, Western blot
T2 sequence: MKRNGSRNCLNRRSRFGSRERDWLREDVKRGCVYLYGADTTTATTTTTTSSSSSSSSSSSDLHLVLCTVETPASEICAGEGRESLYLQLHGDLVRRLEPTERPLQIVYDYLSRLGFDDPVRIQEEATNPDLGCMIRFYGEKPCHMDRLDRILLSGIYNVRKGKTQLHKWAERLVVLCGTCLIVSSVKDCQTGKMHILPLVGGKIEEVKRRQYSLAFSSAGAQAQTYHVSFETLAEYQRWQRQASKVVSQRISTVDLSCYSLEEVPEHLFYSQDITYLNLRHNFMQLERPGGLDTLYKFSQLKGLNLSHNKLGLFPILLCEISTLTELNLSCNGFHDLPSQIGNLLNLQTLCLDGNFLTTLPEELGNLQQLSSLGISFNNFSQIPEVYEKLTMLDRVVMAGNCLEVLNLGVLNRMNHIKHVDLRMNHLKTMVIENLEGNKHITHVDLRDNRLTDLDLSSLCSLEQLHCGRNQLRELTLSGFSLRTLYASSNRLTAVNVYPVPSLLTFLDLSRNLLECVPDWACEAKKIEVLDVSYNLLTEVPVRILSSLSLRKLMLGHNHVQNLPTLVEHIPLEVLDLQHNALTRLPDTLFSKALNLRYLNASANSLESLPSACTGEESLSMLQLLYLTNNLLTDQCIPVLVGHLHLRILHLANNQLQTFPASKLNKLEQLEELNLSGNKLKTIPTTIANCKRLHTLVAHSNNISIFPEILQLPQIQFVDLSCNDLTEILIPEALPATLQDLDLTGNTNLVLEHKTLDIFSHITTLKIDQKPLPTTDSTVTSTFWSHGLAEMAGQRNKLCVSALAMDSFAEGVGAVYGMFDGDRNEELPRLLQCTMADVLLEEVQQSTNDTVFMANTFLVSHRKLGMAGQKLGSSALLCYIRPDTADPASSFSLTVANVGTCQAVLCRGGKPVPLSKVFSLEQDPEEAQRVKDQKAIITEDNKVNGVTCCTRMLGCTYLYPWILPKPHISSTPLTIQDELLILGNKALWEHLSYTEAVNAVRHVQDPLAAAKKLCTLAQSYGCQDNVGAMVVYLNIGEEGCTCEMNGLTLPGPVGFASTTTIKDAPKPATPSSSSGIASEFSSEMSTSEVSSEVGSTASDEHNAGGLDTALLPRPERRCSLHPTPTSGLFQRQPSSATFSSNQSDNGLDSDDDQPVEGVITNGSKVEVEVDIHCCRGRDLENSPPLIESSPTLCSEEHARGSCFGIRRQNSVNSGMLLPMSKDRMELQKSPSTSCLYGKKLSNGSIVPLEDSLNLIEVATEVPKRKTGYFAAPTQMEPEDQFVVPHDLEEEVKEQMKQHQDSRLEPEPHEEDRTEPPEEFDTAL

[6] = biological target: T3, IKKα (endogenous) (human (endogenous in HepG2)) (UniProt O15111); assay: co-IP; IP with anti-IKKα or anti-IKKβ in TRIM22-overexpressed HepG2 cells; Western blot
T3 sequence: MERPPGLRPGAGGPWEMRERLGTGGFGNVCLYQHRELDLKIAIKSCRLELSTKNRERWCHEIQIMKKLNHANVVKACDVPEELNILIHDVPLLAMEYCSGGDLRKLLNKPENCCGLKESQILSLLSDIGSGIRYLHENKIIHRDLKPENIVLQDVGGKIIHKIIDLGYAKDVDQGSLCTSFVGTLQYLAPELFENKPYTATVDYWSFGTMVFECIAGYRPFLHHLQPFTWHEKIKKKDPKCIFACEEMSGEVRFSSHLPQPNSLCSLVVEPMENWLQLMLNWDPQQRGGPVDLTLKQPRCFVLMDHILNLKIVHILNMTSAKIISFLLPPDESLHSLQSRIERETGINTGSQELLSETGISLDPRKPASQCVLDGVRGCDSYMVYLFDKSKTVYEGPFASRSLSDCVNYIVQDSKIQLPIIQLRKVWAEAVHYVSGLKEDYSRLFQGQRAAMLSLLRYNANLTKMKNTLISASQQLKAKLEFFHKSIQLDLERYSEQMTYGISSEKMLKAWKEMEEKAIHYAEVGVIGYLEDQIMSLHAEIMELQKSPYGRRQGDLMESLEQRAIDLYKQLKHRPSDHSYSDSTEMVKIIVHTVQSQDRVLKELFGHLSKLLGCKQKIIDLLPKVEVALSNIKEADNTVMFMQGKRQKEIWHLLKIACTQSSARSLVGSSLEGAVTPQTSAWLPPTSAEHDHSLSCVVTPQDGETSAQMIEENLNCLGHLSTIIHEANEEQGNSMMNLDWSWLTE

[7] = biological target: T4, IKKβ (endogenous) (human (endogenous in HepG2)) (UniProt O14920); assay: as above
T4 sequence: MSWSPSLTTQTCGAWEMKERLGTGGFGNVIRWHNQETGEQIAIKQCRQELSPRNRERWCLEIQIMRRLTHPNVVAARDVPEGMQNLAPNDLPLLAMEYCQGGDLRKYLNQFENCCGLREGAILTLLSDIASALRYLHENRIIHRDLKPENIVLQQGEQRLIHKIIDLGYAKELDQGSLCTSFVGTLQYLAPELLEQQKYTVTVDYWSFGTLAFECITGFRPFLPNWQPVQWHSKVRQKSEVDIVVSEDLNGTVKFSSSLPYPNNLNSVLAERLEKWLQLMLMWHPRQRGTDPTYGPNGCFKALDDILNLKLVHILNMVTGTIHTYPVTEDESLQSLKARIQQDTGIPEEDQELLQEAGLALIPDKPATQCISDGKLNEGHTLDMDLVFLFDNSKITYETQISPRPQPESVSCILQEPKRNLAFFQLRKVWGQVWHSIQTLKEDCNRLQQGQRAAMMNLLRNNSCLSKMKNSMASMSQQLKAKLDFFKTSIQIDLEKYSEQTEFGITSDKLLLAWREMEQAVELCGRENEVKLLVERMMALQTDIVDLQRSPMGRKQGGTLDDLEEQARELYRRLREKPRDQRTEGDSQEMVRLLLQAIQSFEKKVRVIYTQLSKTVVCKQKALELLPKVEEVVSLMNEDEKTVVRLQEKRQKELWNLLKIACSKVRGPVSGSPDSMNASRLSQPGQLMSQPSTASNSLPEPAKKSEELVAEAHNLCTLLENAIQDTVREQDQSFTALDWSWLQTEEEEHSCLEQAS

[8] = biological target: TRIM22-Myc (full-length TRIM22, Myc-tagged) (UniProt Q8IYM9); assay: co-IP; HepG2 cells transfected with EV or TRIM22-Myc, 20 μM MG132 for 4 hrs; lysed in NET-2 buffer; IP with anti-Myc or anti-PHLPP2, Western blot; also done in IKKα- or IKKβ-depleted cells (siRNA): interaction reduced in IKKβ-depleted cells, not in IKKα-depleted cells

Molecule: TRIM22-Myc (full-length TRIM22, Myc-tagged) (from UniProt Q8IYM9 1-498)
- binding [1]: binds
- binding [2]: no binding
- binding [3]: binds
- binding [4]: binds
- binding [5]: binds

Molecule: TRIM22 (in IR-induced senescent HepG2 cells) (from UniProt Q8IYM9 1-498)
- binding [4]: binds

B1: PHLPP2 (endogenous) (protein, UniProt Q6ZVD8 1-1323)
chain: MKRNGSRNCLNRRSRFGSRERDWLREDVKRGCVYLYGADTTTATTTTTTSSSSSSSSSSSDLHLVLCTVETPASEICAGEGRESLYLQLHGDLVRRLEPTERPLQIVYDYLSRLGFDDPVRIQEEATNPDLGCMIRFYGEKPCHMDRLDRILLSGIYNVRKGKTQLHKWAERLVVLCGTCLIVSSVKDCQTGKMHILPLVGGKIEEVKRRQYSLAFSSAGAQAQTYHVSFETLAEYQRWQRQASKVVSQRISTVDLSCYSLEEVPEHLFYSQDITYLNLRHNFMQLERPGGLDTLYKFSQLKGLNLSHNKLGLFPILLCEISTLTELNLSCNGFHDLPSQIGNLLNLQTLCLDGNFLTTLPEELGNLQQLSSLGISFNNFSQIPEVYEKLTMLDRVVMAGNCLEVLNLGVLNRMNHIKHVDLRMNHLKTMVIENLEGNKHITHVDLRDNRLTDLDLSSLCSLEQLHCGRNQLRELTLSGFSLRTLYASSNRLTAVNVYPVPSLLTFLDLSRNLLECVPDWACEAKKIEVLDVSYNLLTEVPVRILSSLSLRKLMLGHNHVQNLPTLVEHIPLEVLDLQHNALTRLPDTLFSKALNLRYLNASANSLESLPSACTGEESLSMLQLLYLTNNLLTDQCIPVLVGHLHLRILHLANNQLQTFPASKLNKLEQLEELNLSGNKLKTIPTTIANCKRLHTLVAHSNNISIFPEILQLPQIQFVDLSCNDLTEILIPEALPATLQDLDLTGNTNLVLEHKTLDIFSHITTLKIDQKPLPTTDSTVTSTFWSHGLAEMAGQRNKLCVSALAMDSFAEGVGAVYGMFDGDRNEELPRLLQCTMADVLLEEVQQSTNDTVFMANTFLVSHRKLGMAGQKLGSSALLCYIRPDTADPASSFSLTVANVGTCQAVLCRGGKPVPLSKVFSLEQDPEEAQRVKDQKAIITEDNKVNGVTCCTRMLGCTYLYPWILPKPHISSTPLTIQDELLILGNKALWEHLSYTEAVNAVRHVQDPLAAAKKLCTLAQSYGCQDNVGAMVVYLNIGEEGCTCEMNGLTLPGPVGFASTTTIKDAPKPATPSSSSGIASEFSSEMSTSEVSSEVGSTASDEHNAGGLDTALLPRPERRCSLHPTPTSGLFQRQPSSATFSSNQSDNGLDSDDDQPVEGVITNGSKVEVEVDIHCCRGRDLENSPPLIESSPTLCSEEHARGSCFGIRRQNSVNSGMLLPMSKDRMELQKSPSTSCLYGKKLSNGSIVPLEDSLNLIEVATEVPKRKTGYFAAPTQMEPEDQFVVPHDLEEEVKEQMKQHQDSRLEPEPHEEDRTEPPEEFDTAL
- binding [6]: binds
- binding [7]: binds
- binding [8]: binds
